This is one part of the list. Rule as the data show it: active = 2-fold of DMSO or more and inactive = the rest. Single values of this set are uncertain. Some low values are a fixed figure set by the source, not a measured ratio.
Each molecule was assayed on CM7/1-hgem mouse ES cell-derived cardiomyocytes (assay: maximal number of mAG-hGem(1/110)-positive cardiomyocytes over 96 h, fold-change vs DMSO; higher = more cardiomyocyte cell cycle activity). Settings: 1 µM; 96 (max over 12 h time points) h.

SMILES	maximal number
CC1(C)C(=O)C=C[C@@]2(C)C1=C(O)C(=O)[C@]1(C)[C@@H]2CC[C@@]2(C)[C@H](c3ccoc3)C[C@H]3O[C@]321	inactive: 1
O=[N+]([O-])O[C@@H]1CO[C@H]2[C@@H]1OC[C@@H]2O	inactive: 1
COc1cc2c(cc1OC)[C@@]13CCN4CC5=CCO[C@H]6CC(=O)N2[C@H]1[C@H]6[C@H]5C[C@H]43	inactive: 0.5
Cc1nnc2n1-c1ccc(Cl)cc1C(c1ccccc1)=NC2	inactive: 1
CC(N)Cc1ccc(O)cc1 (stereo unspecified)	inactive: 0
COc1cc2c(cc1OC)[C@@H]1C(=O)c3ccc(OC)c(CC=C(C)C)c3O[C@@H]1CO2	inactive: 1
CC(=O)O[C@@H]1C[C@@]2(C)[C@H](c3ccoc3)C[C@H]3O[C@]32[C@]2(C)C(=O)C(O)=C3C(C)(C)C(=O)C=C[C@]3(C)[C@@H]12	inactive: 1
Cc1cc2c(C(C)C)c(O)c(O)c(C=O)c2c(O)c1-c1c(C)cc2c(C(C)C)c(O)c(O)c(C=O)c2c1O	inactive: 0
O=c1ccc2cc(O[C@@H]3O[C@H](CO)[C@@H](O)[C@H](O)[C@H]3O)c(O)cc2o1	inactive: 1
C=C(C)[C@H]1Cc2c(ccc3c2O[C@@H]2COc4cc(OC)c(OC)cc4[C@@H]2C3=O)O1	inactive: 1
C=C(C)[C@H]1CN[C@H](C(=O)O)[C@H]1CC(=O)O	inactive: 1
CN(N)C=O	inactive: 1
C=C(C)[C@H]1Cc2c(ccc3c(=O)c4c(oc23)COc2cc(OC)c(OC)cc2-4)O1	inactive: 1
C[C@H]1O[C@@H](O[C@H]2[C@@H](O)C[C@H](O[C@H]3[C@@H](O)C[C@H](O[C@H]4CC[C@@]5(C)[C@H](CC[C@@H]6[C@@H]5CC[C@]5(C)[C@@H](C7=CC(=O)OC7)[C@@H](O)C[C@]65O)C4)O[C@@H]3C)O[C@@H]2C)C[C@H](O)[C@@H]1O	active: 3
Nc1ccncc1	inactive: 1
CC(Cc1ccc(O)cc1)NCC(O)c1cc(O)cc(O)c1 (stereo unspecified)	inactive: 1

SMILES	maximal number
COc1cc2c(cc1OC)[C@H](C)NCC2	inactive: 1
C[C@H]1CC[C@]2(NC1)O[C@H]1C[C@H]3[C@@H]4CC[C@H]5C[C@@H](O[C@@H]6O[C@H](CO)[C@H](O[C@@H]7O[C@H](CO)[C@@H](O)[C@H](O[C@@H]8OC[C@@H](O)[C@H](O)[C@H]8O)[C@H]7O[C@@H]7O[C@H](CO)[C@@H](O)[C@H](O)[C@H]7O)[C@H](O)[C@H]6O)CC[C@]5(C)[C@H]4CC[C@]3(C)[C@H]1[C@@H]2C	inactive: 1
N#C[C@H](O[C@@H]1O[C@H](CO[C@@H]2O[C@H](CO)[C@@H](O)[C@H](O)[C@H]2O)[C@@H](O)[C@H](O)[C@H]1O)c1ccccc1	inactive: 1
COc1cc([C@@H]2c3cc4c(c(O)c3C[C@H]3COC(=O)[C@@H]32)OCO4)cc(OC)c1OC [beta-PELTATIN]	inactive: 1
COc1ccc(/C=C/c2cc(O)cc(O)c2)cc1	inactive: 1
C=C[C@H]1CN2CC[C@H]1C[C@H]2[C@H](O)c1ccnc2ccccc12	inactive: 1
CC(C)(O)[C@@H]1[C@H]2OC(=O)[C@@H]1[C@]1(O)C[C@H]3O[C@]34C(=O)O[C@H]2[C@]14C	inactive: 1
CC1(C)C2C[C@@H](O)[C@]3(C)C(CC[C@@]4(C)[C@H](c5ccoc5)OC(=O)[C@H]5O[C@]543)[C@@]2(C)[C@@H](O)C[C@H]1O (stereo partly specified)	inactive: 1
CN1CCc2cc3c(cc2[C@H]1[C@@H]1OC(=O)c2c1ccc1c2OCO1)OCO3	inactive: 1
CC1=CCCC2C1(C)CCC(C)C2(C)CC/C(C)=C/Cn1c[n+](C)c2c(N)ncnc21 (stereo unspecified) [AGELASINE (stereochemistry of diterpene unknown)]	inactive: 1
CC[C@@H](C(N)=O)N1CCCC1=O	inactive: 1
CC(C)=CCOc1c2occc2cc2ccc(=O)oc12	inactive: 1
N#Cc1c(Cl)c(Cl)c(Cl)c(C#N)c1Cl	inactive: 1
CCN(Cc1ccc(Cl)nc1)/C(=C/[N+](=O)[O-])NC	inactive: 1
C[C@]12CC[C@H]3[C@@H](CC[C@@]45O[C@@H]4C(O)=C(C#N)C[C@]35C)[C@@H]1CC[C@@H]2O	inactive: 1

Some of these compounds in order of length of the SMILES, descending.
SMILES	maximal number
C[C@]12CC[C@H]3[C@@H](CC[C@@]45O[C@@H]4C(O)=C(C#N)C[C@]35C)[C@@H]1CC[C@@H]2O	inactive: 1
CC(C)(O)[C@@H]1[C@H]2OC(=O)[C@@H]1[C@]1(O)C[C@H]3O[C@]34C(=O)O[C@H]2[C@]14C	inactive: 1
C=C[C@H]1CN2CC[C@H]1C[C@H]2[C@H](O)c1ccnc2ccccc12	inactive: 1
CC(C)=CCOc1c2occc2cc2ccc(=O)oc12	inactive: 1
COc1ccc(/C=C/c2cc(O)cc(O)c2)cc1	inactive: 1
CC(N)Cc1ccc(O)cc1 (stereo unspecified)	inactive: 0
Nc1ccncc1	inactive: 1

From the supplement of paper PMC9549374
